We go through 38 compounds from the supplement of paper PMC6821926, “Diaminoquinazoline MMV675968 from Pathogen Box inhibits Acinetobacter baumannii growth through targeting of dihydrofolate reductase” (Scientific Reports, 2019).

Each structure is given as a SMILES string. ± gives the uncertainty stated by the source. The list shows a part of the results.

The test system of one experiment is Acinetobacter baumannii Mahidol. Description: percent growth relative to DMSO-treated control; higher = less growth inhibition. The conditions noted are these: 10 µM; 18 h.
`Cc1[nH]c2ccccc2c1C(c1cccs1)N1CCN(C)CC1` (stereo unspecified) registered a percent growth of 73.7 ± 49%.
`CCOC(=O)c1cc(-c2csc(Nc3c(C)cc(C)cc3C)n2)on1` yielded a percent growth of 111 ± 9.8%.
Regarding `Cc1ccc(Oc2ccc(NC(=O)CNc3ccccc3N3CCCC3=O)cc2)cc1`, the percent growth came to 104 ± 37%.
Still for that read-out and setting: the figure for `COc1cccc(OCC(=O)c2ccc(Br)cc2)c1` is 104 ± 15%; for `Cc1cc(OCC(=O)Nc2ccc(C(C)C)cc2)n(C)c(=O)c1C#N` it is 104 ± 21%; for `COc1ccccc1CNC(=O)c1cc(C2CC2)nc2c1cnn2C(C)C` it is 102 ± 9.1%.
The same measure, in the same setting: the figure for `Cc1cc(C)n(-c2ccc(NC(=O)C3CCN(Cc4cnc(C)s4)CC3)cc2)n1` is 92.1 ± 5.9%; for `COc1nc2ccc(Br)cc2cc1[C@@H](c1ccccc1)[C@@](O)(CCN(C)C)c1cccc2ccccc12` it is 107 ± 11%.
Compound `CC(C)C(Oc1cccc2ccccc12)C(=O)O` (stereo unspecified) came in with a percent growth of 91 ± 8.1%.
With `NCCN(C(=O)c1ccc(Cl)cc1Cl)c1ccc(OCc2ccc(Cl)cc2)cc1`, the percent growth amounted to 41.6 ± 110%.
As to `Cc1nc(-c2ccccn2)nc(N2CCC(Cc3ccccc3)C2)c1Cl` (stereo unspecified), the percent growth was found to be 95.3 ± 6.7%.
Turning to `CC(C(=O)N1CCCC1)N1CCN(S(=O)(=O)c2ccc(C(C)(C)C)cc2)CC1` (stereo unspecified), the percent growth is 77 ± 34%.
`CC(C)(C)c1cc(C(=O)N2CCN(c3nccnc3C#N)CC2)n(Cc2ccccc2)n1` had a percent growth of 100 ± 11%.
As to `CCc1cc(=O)n(C)c(SC(C)C(=O)Nc2ccc(F)cc2)n1` (stereo unspecified), the percent growth amounted to 98 ± 6.2%.
As to `CC1(COc2ccc(N3CCC(Oc4ccc(OC(F)(F)F)cc4)CC3)cc2)Cn2cc([N+](=O)[O-])nc2O1` (stereo unspecified), the percent growth is 69 ± 41%.
`CCCCOC(=O)Nc1cc2nc(C3CCCCC3)[nH]c2cc1N1CCCC1` returned a percent growth of 64.8 ± 36%.
On to `Nc1cccnc1Nc1ccc(Cl)cc1`, for which the percent growth came out at 102 ± 12%.
For `O=C(Nc1ccc2c(c1)B(O)OC2)c1ccccc1C(F)(F)F`, the percent growth was 103 ± 13%.
On the same count and under the same terms, the figure for `O=C(Nc1ccccc1-c1nc2c(C(=O)O)cccc2o1)c1ccccc1` is 87.4 ± 9%; for `COc1ccc(CN2CCOc3ccc(C(C)(O)CN(C)C)cc3C2)cc1C` (stereo unspecified) it is 96.9 ± 5.9%; for `CNc1snc(C)c1C(=O)NCCOc1ccc(OC)cc1` it is 60.2 ± 39%.
The compound `CCOC(=O)NC(=O)c1ccsc1NC(=O)c1nc2ccccc2s1` gave a percent growth of 79.9 ± 43%.
The compound `CCCn1c(CNc2ccccc2O)nc2ccccc21` yielded a percent growth of 89.3 ± 26%.
The compound `O=C(Nc1ccnc(-c2cccnc2)n1)c1cc(C(F)(F)F)cc(C(F)(F)F)c1` displayed a percent growth of 79.2 ± 8.1%.
As for `CCc1nc2ccc(C(=O)NCc3ccc4c(c3)OCO4)cn2c1N(C)Cc1cccs1`, the percent growth is 85.1 ± 3.5%.
Regarding `COc1cc(Br)cc2cc(C(=O)Nc3cccc(C(F)(F)F)c3)c(=O)oc12`, the percent growth is 89.8 ± 12%.
For the compound `CC(=O)Nc1ccc(NC(=O)c2cc(-c3cc(Cl)ccc3O)[nH]n2)cc1`, the percent growth amounted to 136 ± 36%.
Same read-out and setting: to `Cn1ncc2c(N3CCOCC3)nc(NCCc3c[nH]c4ccccc34)nc21` belongs 83.1 ± 32%.
`O=C(CCC1CCCCC1)Nc1cccc(-c2nnc(-c3ccco3)o2)c1` displayed a percent growth of 102 ± 28%.
With `Clc1ccc(CCNc2cc(-c3ccccc3)nc3ncnn23)cc1`, the percent growth amounted to 77.6 ± 36%.
Still for that read-out and setting: the figure for `COc1ccc(C2=NCCN2)cc1-c1cn(-c2cccc(C3=NCCN3)c2)nn1` is 76.8 ± 29%; for `FC(F)(F)c1cc(NCCc2ccccc2)nc(-c2ccccn2)n1` it is 101 ± 9.4%; for `CCC(NC(=O)c1ccccc1NC(=O)c1ccc(C)cc1)C(=O)OC` (stereo unspecified) it is 96.4 ± 6.4%.
Consider `CN1CCCC1CCO[C@](C)(c1ccccc1)c1ccc(Cl)cc1` (stereo partly specified), for which the percent growth amounted to 103 ± 16%.
`O=C(NCc1cc(Cl)cc(Cl)c1)c1c(C(F)(F)F)nc2ccccn12`: the percent growth is 88.5 ± 11%.
For the compound `Cc1ccc2[nH]c3c(NCCN(C)C)ncnc3c2c1`, the percent growth worked out at 131 ± 29%.
`CN(C)CCNC(=O)N1CCCN(c2ncnc3cc(-c4ccccc4)sc23)CC1` gave a percent growth of 87.1 ± 5.7%.
`CNC(=O)c1cc(S(=O)(=O)N2CCN(c3ccccn3)CC2)cs1` gave a percent growth of 70.2 ± 19%.

The next experiment deals with Acinetobacter baumannii Naval-81. The description is as above. The conditions noted are these: 10 µM; 18 h.
Take `Cc1[nH]c2ccccc2c1C(c1cccs1)N1CCN(C)CC1` (stereo unspecified): the percent growth is 120 ± 50%.
In turn, `CCOC(=O)c1cc(-c2csc(Nc3c(C)cc(C)cc3C)n2)on1` showed a percent growth of 101 ± 29%.
Same read-out and setting: to `Cc1ccc(Oc2ccc(NC(=O)CNc3ccccc3N3CCCC3=O)cc2)cc1` belongs 81.21 ± 0.7%; to `COc1cccc(OCC(=O)c2ccc(Br)cc2)c1`, 95.9 ± 14%; to `Cc1cc(OCC(=O)Nc2ccc(C(C)C)cc2)n(C)c(=O)c1C#N`, 94 ± 14%.
`COc1ccccc1CNC(=O)c1cc(C2CC2)nc2c1cnn2C(C)C` came in with a percent growth of 107 ± 49%.
On the same count and under the same terms, to `Cc1cc(C)n(-c2ccc(NC(=O)C3CCN(Cc4cnc(C)s4)CC3)cc2)n1` belongs 83.7 ± 10%; to `COc1nc2ccc(Br)cc2cc1[C@@H](c1ccccc1)[C@@](O)(CCN(C)C)c1cccc2ccccc12`, 92.8 ± 15%; to `CC(C)C(Oc1cccc2ccccc12)C(=O)O` (stereo unspecified), 95.1 ± 8.3%.
As to `NCCN(C(=O)c1ccc(Cl)cc1Cl)c1ccc(OCc2ccc(Cl)cc2)cc1`, the percent growth was 101 ± 11%.
`Cc1nc(-c2ccccn2)nc(N2CCC(Cc3ccccc3)C2)c1Cl` (stereo unspecified) gave a percent growth of 81 ± 5.5%.
Turning to `CC(C(=O)N1CCCC1)N1CCN(S(=O)(=O)c2ccc(C(C)(C)C)cc2)CC1` (stereo unspecified), the percent growth is 96.2 ± 3%.
On the same count and under the same terms, the figure for `CC(C)(C)c1cc(C(=O)N2CCN(c3nccnc3C#N)CC2)n(Cc2ccccc2)n1` is 90.5 ± 5.7%; for `CCc1cc(=O)n(C)c(SC(C)C(=O)Nc2ccc(F)cc2)n1` (stereo unspecified) it is 99.5 ± 11%; for `CC1(COc2ccc(N3CCC(Oc4ccc(OC(F)(F)F)cc4)CC3)cc2)Cn2cc([N+](=O)[O-])nc2O1` (stereo unspecified) it is 89.8 ± 37%.
`CCCCOC(=O)Nc1cc2nc(C3CCCCC3)[nH]c2cc1N1CCCC1`: the percent growth is 103 ± 7.7%.
As for `Nc1cccnc1Nc1ccc(Cl)cc1`, the percent growth turned out to be 92.9 ± 7.5%.
The compound `O=C(Nc1ccc2c(c1)B(O)OC2)c1ccccc1C(F)(F)F` had a percent growth of 93.9 ± 12%.
With `O=C(Nc1ccccc1-c1nc2c(C(=O)O)cccc2o1)c1ccccc1`, the percent growth was determined as 118 ± 34%.
`COc1ccc(CN2CCOc3ccc(C(C)(O)CN(C)C)cc3C2)cc1C` (stereo unspecified) registered a percent growth of 106 ± 24%.
On to `CNc1snc(C)c1C(=O)NCCOc1ccc(OC)cc1`, for which the percent growth is 97.8 ± 9.5%.
`CCOC(=O)NC(=O)c1ccsc1NC(=O)c1nc2ccccc2s1` returned a percent growth of 106 ± 31%.
Still for that read-out and setting: to `CCCn1c(CNc2ccccc2O)nc2ccccc21` belongs 77.9 ± 15%.
As to `O=C(Nc1ccnc(-c2cccnc2)n1)c1cc(C(F)(F)F)cc(C(F)(F)F)c1`, the percent growth amounted to 83.4 ± 31%.
For the compound `CCc1nc2ccc(C(=O)NCc3ccc4c(c3)OCO4)cn2c1N(C)Cc1cccs1`, the percent growth turned out to be 102 ± 13%.
For the compound `COc1cc(Br)cc2cc(C(=O)Nc3cccc(C(F)(F)F)c3)c(=O)oc12`, the percent growth worked out at 98.2 ± 0.54%.
Consider `CC(=O)Nc1ccc(NC(=O)c2cc(-c3cc(Cl)ccc3O)[nH]n2)cc1`, for which the percent growth was found to be 88.9 ± 7.2%.
Compound `Cn1ncc2c(N3CCOCC3)nc(NCCc3c[nH]c4ccccc34)nc21` showed a percent growth of 82.6 ± 36%.
Still for that read-out and setting: to `O=C(CCC1CCCCC1)Nc1cccc(-c2nnc(-c3ccco3)o2)c1` belongs 92.8 ± 9.7%; to `Clc1ccc(CCNc2cc(-c3ccccc3)nc3ncnn23)cc1`, 93.3 ± 8.9%.
`COc1ccc(C2=NCCN2)cc1-c1cn(-c2cccc(C3=NCCN3)c2)nn1` had a percent growth of 96 ± 4.9%.
Compound `FC(F)(F)c1cc(NCCc2ccccc2)nc(-c2ccccn2)n1` displayed a percent growth of 89 ± 4.7%.
Turning to `CCC(NC(=O)c1ccccc1NC(=O)c1ccc(C)cc1)C(=O)OC` (stereo unspecified), the percent growth worked out at 83.6 ± 5.7%.
Consider `CN1CCCC1CCO[C@](C)(c1ccccc1)c1ccc(Cl)cc1` (stereo partly specified), for which the percent growth was 53.1 ± 50%.
Regarding `O=C(NCc1cc(Cl)cc(Cl)c1)c1c(C(F)(F)F)nc2ccccn12`, the percent growth turned out to be 102 ± 8.3%.
As for `Cc1ccc2[nH]c3c(NCCN(C)C)ncnc3c2c1`, the percent growth was 75.2 ± 65%.
On the same count and under the same terms, the figure for `CN(C)CCNC(=O)N1CCCN(c2ncnc3cc(-c4ccccc4)sc23)CC1` is 87.3 ± 10%; for `CNC(=O)c1cc(S(=O)(=O)N2CCN(c3ccccn3)CC2)cs1` it is 103 ± 38%.
